According to patent US20190300892A1, “CONSTRUCTS AND METHODS FOR BIOSYNTHESIS OF GALANTHAMINE” (priority 2014, published 2019):
At least one structure is not confirmed: it was looked up by name or label, or the drawing left a doubt.

Each compound was assayed against T1, CYP96T1 (Narcissus aff. pseudonarcissus MK-2014, UniProt A0A140IL90). Details: 10 μM substrate; modification monitored per substrate (C-C phenol coupling, methoxy bridge formation, hydroxylation, condensation).
T1 construct: made in house; host or cells: Spodoptera frugiperda Sf9 cells (Baculogold baculovirus, pVL1392)
T1 sequence (A0A140IL90 1-513): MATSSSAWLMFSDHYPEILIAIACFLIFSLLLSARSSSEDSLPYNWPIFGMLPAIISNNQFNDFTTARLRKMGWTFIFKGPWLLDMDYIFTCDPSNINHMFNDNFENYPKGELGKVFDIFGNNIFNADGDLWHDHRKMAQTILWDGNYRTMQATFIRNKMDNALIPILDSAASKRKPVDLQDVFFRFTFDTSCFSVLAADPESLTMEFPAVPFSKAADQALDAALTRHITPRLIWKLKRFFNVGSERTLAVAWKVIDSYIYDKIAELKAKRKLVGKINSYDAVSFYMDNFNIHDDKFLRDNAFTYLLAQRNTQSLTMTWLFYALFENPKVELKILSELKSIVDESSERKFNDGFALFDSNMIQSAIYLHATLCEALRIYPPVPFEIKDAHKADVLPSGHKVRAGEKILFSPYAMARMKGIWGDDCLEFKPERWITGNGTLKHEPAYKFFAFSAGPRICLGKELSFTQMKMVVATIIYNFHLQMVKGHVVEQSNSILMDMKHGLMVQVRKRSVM
Format: biochemical
Method: Recombinant protein production of NpN4OMT and norbelladine synthase/reductase in 1 L of E. coli and purification with TALON resin followed standard methods. No proteases were added to the protein extract, and desalting was performed with PD-10 columns from GE Healthcare. Protein quantity was determined according to Bradford; purity was monitored by SDS-PAGE. The E. coli cell line containing the hexahistidine-tagged methylthioadenosine/S-adenosylhomocysteine nucleosidase (Pfs) construct from Choi-Rhee and Cronan's work was used to purify Pfs protein. CYP96T1 was co-expressed with cytochrome P450 reductase in Spodoptera frugiperda Sf9 cells using Baculogold baculoviurus (BD Biosciences). Whole cell lysates were used in CYP96T1 enzyme assays.
CYP96T1 assays contained 30 mM KPO4 pH 8.0, 1.25 mM NADPH, 10 μM substrate and 70 μl of virus infected Sf9 cell suspension in 200 μl total volume. The assays were incubated for 2-4 hr at 30° C. 4′-O-metylnorbelladine was used as an initial test compound. Substrate specificity tests were done on 4′-O-methyl-N-methylnorbelladine, norbelladine, N-methylnorbelladine, 3′-O-methylnorbelladine, 3′,4′-O-dimethylnorbelladine, haemanthamine, (S)-coclaurine, (R)-coclaurine and mixed (10aR,4bR)- and (10aS,4bS)-noroxomaritidine. Assays derivatized with sodium borohydride were incubated 2 hr at 30° C. followed by addition of 0.5 volumes 0.5 M sodium borohydride in 0.5 M sodium hydroxide and incubated 30 min at RT. The CYP96T1 assay resolved on a Chiral-CBH column and assays measured with HPLC used fresh CYP96T1 and CPR expressing SF9 cell protein prepared using re-amplified virus. Enzyme assays on all substrates were extracted as previously described and run on a QTRAP 4000 coupled to a IL-20AC XR prominence liquid auto sampler, 20AD XR prominence liquid chromatograph and Phenomenex Luna 5 μm C8(2) 250×4.60 mm column. HPLC gradient and MS settings were as previously described for NpN4OMT. Assay specific MS/MS parameters are presented in
Table 4. Multiple Reaction Monitoring (MRM) parameters for relative quantification of (10aR,4bR)- and (10aS,4bS)-noroxomaritidine, N-demethylnarwedine, narwedine and the two unknown compounds are presented in Table5. For analysis of product chirality, a Chrom Tech, Inc. Chiral-CBH 100×4.0 mm, 5 μM column was used with a 30 min isocratic flow of 2.5% HPLC grade ethanol and 10 mM ammonium acetate with pH adjusted to 7.0 with ammonium hydroxide.
In the case of `COc1ccc(CN(C)CCc2ccc(O)cc2)cc1O` [4′-O-Methyl-N-methylnorbelladine], the Activity was “+”.
For `COc1ccc(CNCCc2ccc(O)cc2)cc1O` [4′-O-Methylnorbelladine], the Activity was “+”.
`COc1cc2c(cc1O)[C@@H](Cc1ccc(O)cc1)NCC2` [(R)-Coclaurine] was tested, and the Activity was “+”.
In the case of `COc1cc2c(cc1O)[C@H](Cc1ccc(O)cc1)NCC2` [(S)-Coclaurine], the Activity was “+”.
